Assay results as given in article PMC4132743 (Nucleic Acids Research, 2014).

What was measured:
Assay in all cases: fluorescence polarization
Details in all cases: Buffer A: 20 mM Tris-HCl pH 7.5, 40 mM NaCl, 5% v/v glycerol, 20 C; FPA 200 nM 5'-FAM DNA, Hill fit; recombinant protein; residues 1-179; protein details: His-MBP removed by TEV; label: 5'-FAM; single-stranded DNA
[1] = target: T1, DnaT Y127A (Escherichia coli K12) (UniProt P0A8J2)
T1 sequence (looked up): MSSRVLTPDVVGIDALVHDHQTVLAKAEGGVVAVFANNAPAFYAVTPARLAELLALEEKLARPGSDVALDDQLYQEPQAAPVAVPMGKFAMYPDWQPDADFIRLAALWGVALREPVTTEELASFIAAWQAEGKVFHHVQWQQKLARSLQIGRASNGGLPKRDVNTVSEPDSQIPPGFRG

[2] = target: T2, DnaT R146A (Escherichia coli K12) (UniProt P0A8J2)
T2 sequence (looked up): T1 sequence (looked up) with A127Y, R146A

[3] = target: T3, DnaT W128A (Escherichia coli K12) (UniProt P0A8J2)
T3 sequence (looked up): T1 sequence (looked up) with A127Y, W128A

[4] = target: T4, DnaT K143A (Escherichia coli K12) (UniProt P0A8J2)
T4 sequence (looked up): T1 sequence (looked up) with A127Y, K143A

[5] = target: T5, DnaT F135A (Escherichia coli K12) (UniProt P0A8J2)
T5 sequence (looked up): T1 sequence (looked up) with A127Y, F135A

[6] = target: T6, DnaT K133A (Escherichia coli K12) (UniProt P0A8J2)
T6 sequence (looked up): T1 sequence (looked up) with A127Y, K133A

Measured: binding result

TTTTTTTTTTTTTTTTTTTTTTTTTTTTTT [5F-dT30]
binds more weakly: all assays above

Where a chain is given by its changes, count along the chain named. Weaker means in comparison with the reference protein, sequence or condition of that experiment. Protein sequences can lack the tags named with them.
